Results reported in US7261876B2, “Multivalent constructs for therapeutic and diagnostic applications” (Bracco International BV, priority 2002, dated 2007).
For some assays here: Part of at least one peptide drawing is inferred or uncertain, most often the ends. For some assays here: At least one compound was matched to its structure with a doubt left.

By UniProt entry, the sequences of proteins in these tests, tags left out. Residues count along the entry.
UniProt P35968, 20-764 limits assumed: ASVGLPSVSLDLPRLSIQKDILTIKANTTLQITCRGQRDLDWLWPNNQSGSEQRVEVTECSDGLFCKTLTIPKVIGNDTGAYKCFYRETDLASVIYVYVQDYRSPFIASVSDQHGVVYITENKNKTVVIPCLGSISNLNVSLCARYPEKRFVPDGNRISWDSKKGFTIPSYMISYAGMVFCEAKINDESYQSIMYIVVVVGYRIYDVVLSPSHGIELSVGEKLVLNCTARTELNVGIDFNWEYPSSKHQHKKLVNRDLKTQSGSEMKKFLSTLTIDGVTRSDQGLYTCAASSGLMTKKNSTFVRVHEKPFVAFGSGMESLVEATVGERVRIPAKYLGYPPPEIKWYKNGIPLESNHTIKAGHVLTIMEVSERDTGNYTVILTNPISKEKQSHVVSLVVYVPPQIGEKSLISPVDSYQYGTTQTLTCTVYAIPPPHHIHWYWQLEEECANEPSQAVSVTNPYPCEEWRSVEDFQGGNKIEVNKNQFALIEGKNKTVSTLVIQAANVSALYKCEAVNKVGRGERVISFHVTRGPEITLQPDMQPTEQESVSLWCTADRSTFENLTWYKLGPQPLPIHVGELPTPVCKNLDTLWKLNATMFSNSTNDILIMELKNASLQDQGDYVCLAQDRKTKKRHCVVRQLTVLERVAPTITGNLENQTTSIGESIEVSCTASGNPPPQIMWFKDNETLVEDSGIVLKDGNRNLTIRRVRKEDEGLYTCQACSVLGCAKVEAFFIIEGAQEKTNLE

Tests used:
[1] = tested on: VEGF-induced migration of HUVECs; assay: HUVEC migration/invasion assay; type: cell-based, human; conditions: 50 nM
Soluble KDR receptor = target: T1, Soluble KDR receptor (Homo sapiens, UniProt P35968); assay: Surface plasmon resonance (Biacore 3000) of P9/P10 heterodimers; type: binding; conditions: read-out: KD,1 (apparent KD)
T1 construct: Soluble KDR receptor was cross-linked to the dextran surface of a CM5 sensor chip

| SMILES | VEGF-stimulated migration [1] | Kd (Soluble KDR receptor) |
| --- | --- | --- |
| CC[C@H](C)[C@H](NC(=O)[C@H](CCSC)NC(=O)[C@@H]1CSSC[C@H](NC(=O)[C@H](Cc2c[nH]c3ccccc23)NC(=O)[C@H](CCCCN)NC(=O)[C@@H]2CCCN2C(=O)CNC(=O)[C@H](C)NC(C)=O)C(=O)N[C@@H](CCC(=O)O)C(=O)N[C@@H](CCC(=O)O)C(=O)N[C@@H](CC(=O)O)C(=O)N[C@@H](Cc2c[nH]c3ccccc23)C(=O)N[C@@H](Cc2ccc(O)cc2)C(=O)N[C@@H](Cc2ccc(O)cc2)C(=O)N1)C(=O)N[C@H](C(=O)NCC(=O)N[C@H](C(=O)NCC(=O)NCC(=O)NCC(=O)N[C@@H](CCCCNC(=O)CCOCCOCCOCCOCCNC(=O)CCCC(=O)NCCOCCOCCOCCOCCC(=O)NCCCC[C@H](NC(=O)CNC(=O)CNC(=O)CNC(=O)[C@@H]1CCCN1C(=O)[C@H](CC(=O)O)NC(=O)[C@H](Cc1ccc(O)cc1)NC(=O)[C@H](CCCNC(=N)N)NC(=O)[C@H](Cc1ccccc1)NC(=O)[C@@H]1CSSC[C@H](NC(=O)[C@@H](NC(=O)[C@H](CCCNC(=N)N)NC(=O)[C@H](CO)NC(=O)[C@H](CC(=O)O)NC(=O)CNC(C)=O)C(C)C)C(=O)N[C@@H](Cc2c[nH]c3ccccc23)C(=O)N[C@@H](CCC(=O)O)C(=O)N[C@@H](CC(=O)O)C(=O)N[C@@H](CO)C(=O)N[C@@H](Cc2c[nH]c3ccccc23)C(=O)NCC(=O)NCC(=O)N[C@@H](CCC(=O)O)C(=O)N[C@@H](C(C)C)C(=O)N1)C(N)=O)C(N)=O)[C@@H](C)O)[C@@H](C)O [D7] | essentially complete inhibition of the migration stimulated by VEGF | – |
| CC[C@H](C)[C@H](NC(=O)[C@H](Cc1c[nH]c2ccccc12)NC(=O)[C@H](Cc1ccc(O)cc1)NC(=O)[C@H](CC(=O)O)NC(=O)[C@H](CC(=O)O)NC(=O)CNC(=O)CNC(=O)[C@H](Cc1ccccc1)NC(=O)[C@H](CCCNC(=N)N)NC(=O)[C@@H]1CCCN1C(=O)[C@H](Cc1ccccc1)NC(=O)[C@H](C)NC(=O)[C@H](CCC(N)=O)NC(=O)[C@H](C)NC(C)=O)C(=O)N[C@@H](CCC(N)=O)C(=O)N[C@@H](CCC(N)=O)C(=O)N[C@@H](Cc1ccc(O)cc1)C(=O)N[C@@H](CC(C)C)C(=O)N[C@@H](CCCNC(=N)N)C(=O)N[C@@H](Cc1ccc(O)cc1)C(=O)N[C@H](C(=O)N[C@@H](CC(=O)O)C(=O)NCC(=O)NCC(=O)N[C@@H](CCCCNC(=O)CCOCCOCCOCCOCCNC(=O)CON=C(C)CCC(=O)NCCOCCOCCOCCOCCC(=O)NCCCC[C@H](NC(=O)CNC(=O)CNC(=O)[C@H](CC(=O)O)NC(=O)CNC(=O)[C@H](CC(=O)O)NC(=O)[C@H](CCC(=O)O)NC(=O)[C@H](CCC(=O)O)NC(=O)[C@H](Cc1c[nH]cn1)NC(=O)[C@H](Cc1ccc(O)cc1)NC(=O)[C@H](CC(C)C)NC(=O)[C@@H](NC(=O)[C@@H](NC(=O)[C@@H](NC(=O)[C@H](CCC(=O)O)NC(=O)[C@H](Cc1c[nH]c2ccccc12)NC(=O)[C@H](Cc1ccc(O)cc1)NC(=O)[C@H](C)NC(=O)[C@H](Cc1ccc(O)cc1)NC(=O)CNC(=O)[C@H](CCC(=O)O)NC(=O)[C@@H]1CCCN1C(=O)[C@H](CCC(=O)O)NC(=O)[C@H](CCC(N)=O)NC(=O)[C@H](C)NC(C)=O)C(C)C)[C@@H](C)CC)[C@@H](C)O)C(N)=O)C(N)=O)[C@@H](C)O [Tail-to-tail dimer] | – | 11.1 nM |
